Results are given in words; binding and its absence hold for the method and conditions named. In cells and extracts the contact can be indirect. Some results given as binding are weak or reduced against the parent protein; the word gives no strength.

The chains behind the UniProt entries cited, without tags or fusion partners. Where a name states a change or a piece, a line headed by the entry shows the natural chain unless it says otherwise.
UniProt P60122: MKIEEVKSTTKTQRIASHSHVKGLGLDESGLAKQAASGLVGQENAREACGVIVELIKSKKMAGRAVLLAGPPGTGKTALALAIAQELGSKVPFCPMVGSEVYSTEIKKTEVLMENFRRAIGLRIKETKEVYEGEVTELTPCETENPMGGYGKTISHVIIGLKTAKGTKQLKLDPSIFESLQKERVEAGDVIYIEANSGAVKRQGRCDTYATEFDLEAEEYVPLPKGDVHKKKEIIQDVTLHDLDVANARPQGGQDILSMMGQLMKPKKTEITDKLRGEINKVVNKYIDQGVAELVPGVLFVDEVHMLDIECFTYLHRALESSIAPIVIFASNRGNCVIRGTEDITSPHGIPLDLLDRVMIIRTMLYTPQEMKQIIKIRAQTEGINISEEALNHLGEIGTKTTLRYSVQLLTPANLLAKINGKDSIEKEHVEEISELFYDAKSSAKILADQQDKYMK
UniProt Q9WTM5: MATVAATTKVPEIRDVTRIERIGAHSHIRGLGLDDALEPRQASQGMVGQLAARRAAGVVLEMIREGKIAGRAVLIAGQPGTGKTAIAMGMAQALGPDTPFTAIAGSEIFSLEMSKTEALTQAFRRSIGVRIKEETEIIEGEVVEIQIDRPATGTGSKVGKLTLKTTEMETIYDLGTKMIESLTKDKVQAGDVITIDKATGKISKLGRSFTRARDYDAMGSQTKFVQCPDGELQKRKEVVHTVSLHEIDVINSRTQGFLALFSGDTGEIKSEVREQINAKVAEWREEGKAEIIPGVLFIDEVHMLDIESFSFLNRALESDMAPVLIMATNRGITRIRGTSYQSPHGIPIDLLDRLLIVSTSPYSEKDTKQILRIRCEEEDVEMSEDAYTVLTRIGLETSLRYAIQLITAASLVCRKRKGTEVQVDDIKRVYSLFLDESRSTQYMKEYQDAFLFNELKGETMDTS
UniProt P53350: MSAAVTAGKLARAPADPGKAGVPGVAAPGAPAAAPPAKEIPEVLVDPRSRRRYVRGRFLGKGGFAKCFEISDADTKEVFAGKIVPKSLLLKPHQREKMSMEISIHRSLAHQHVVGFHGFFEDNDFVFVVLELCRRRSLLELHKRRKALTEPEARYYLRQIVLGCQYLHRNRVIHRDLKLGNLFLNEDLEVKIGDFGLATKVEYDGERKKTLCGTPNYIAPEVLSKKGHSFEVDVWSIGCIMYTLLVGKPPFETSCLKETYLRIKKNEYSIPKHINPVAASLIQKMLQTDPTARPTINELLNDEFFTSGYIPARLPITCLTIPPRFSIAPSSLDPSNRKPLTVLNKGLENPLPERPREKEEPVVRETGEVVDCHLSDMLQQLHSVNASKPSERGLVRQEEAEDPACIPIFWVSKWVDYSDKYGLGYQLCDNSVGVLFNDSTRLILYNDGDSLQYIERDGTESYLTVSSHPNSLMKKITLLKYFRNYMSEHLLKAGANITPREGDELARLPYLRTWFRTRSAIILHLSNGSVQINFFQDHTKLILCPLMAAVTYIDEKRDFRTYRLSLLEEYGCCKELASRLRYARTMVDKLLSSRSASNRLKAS

Four substances from publication PMC4511761 can be followed below.

For experiment [1], the target named is GST-tagged RUVBL1 (murine) (mouse) (UniProt P60122). Description: pull-down; GST-tagged RUVBL1 and His-tagged RUVBL2 co-expressed in E. coli and purified using GSH beads; co-purification.
For experiment [2], the target named is HA-tagged RUVBL1 (murine) (mouse) (UniProt P60122). Description: co-IP; anti-HA (12CA5 hybridoma supernatant) on 1 mg extract (NP-40 buffer) of nocodazole-arrested 293T cells transfected with HA-tagged RUVBL1; blot for PLK1.
For experiment [3], the target named is GFP-tagged mouse RuvBL1 (GFP-mRuvBL1) (mouse) (UniProt P60122). Briefly: co-IP; GFP-trap (Chromotek) on 1 mg whole cell extract of HeLa cells stably expressing the GFP-tagged protein; cells asynchronous or double-thymidine/nocodazole-synchronized; Western blot.
Experiment [4] deals with GFP-tagged mouse RuvBL2 (GFP-mRuvBL2) (mouse) (UniProt Q9WTM5). The description is as above.
Experiment [5] has as its target FLAG-tagged PLK1 (polo-like kinase 1) (UniProt P53350). Description: co-IP; anti-FLAG antibody/beads on 1 mg extract (NP-40 buffer: 50 mM Tris-HCl pH 8.0, 150 mM NaCl, 1 mM EDTA, 1% NP-40) of FLAG-PLK1-transfected 293T cells, asynchronous or nocodazole-arrested; blot for RUVBL1.
The target in experiment [6] is FLAG-tagged murine RuvBL1 D302N (ATPase-dead) (mouse) (UniProt P60122). Briefly: co-IP; anti-FLAG immunoprecipitates from U2OS T-REx cell lines after four days of doxycycline treatment; blot for RUVBL2.
For experiment [7], the target named is FLAG-tagged murine RuvBL1, wild type (mouse) (UniProt P60122). Described as above.

With “His-tagged RUVBL2 (murine) (from UniProt Q9WTM5 1-463)”, in experiment [1], the binding entry is listed as “binds”.
On to “PLK1 (polo-like kinase 1), endogenous (from UniProt P53350 1-603) (enzyme)”, for which the binding entry in experiment [2] and in experiment [3] was “binds” throughout.
Regarding “RUVBL1 (RuvB-like 1), endogenous (from UniProt Q9Y265-1 1-456)”, the binding result in experiment [4] and in experiment [5] was “binds” throughout.
Consider “RUVBL2 (RuvB-like 2), endogenous (from UniProt Q9Y230-1 1-463)”, for which the binding entry in experiment [6], in experiment [7] and in experiment [3] was “binds” throughout.
